Measured values reported in patent publication US9737502B2, “Calebin A for hepatic steatosis” (SAMI LABS LIMITED, priority 2011, dated 2017).

Assay: Study I: HFD-fed mice, diet supplementation 12 weeks; body weight, food intake, relative organ weights

Which results are given for `COc1cc(/C=C/C(=O)COC(=O)/C=C/c2ccc(O)c(OC)c2)ccc1O` [Calebin A]?
Food intake (HFD + 0.25% Calebin A): 3.57 ± 0.47 g/mouse/day; Food intake (HFD + 1% Calebin A): 3.57 ± 0.40 g/mouse/day
